Experimental data reported in patent publication US8507677B2, “Fluorescent probe” (The University of Tokyo, priority 2007, dated 2013).

Assay: Optical characteristics (absorption/excitation spectra, fluorescence intensity ratio) in phosphate buffered solution of various pH values
Assay type: physicochemical
Experimental: All the measurements were performed in a 100 mM sodium phosphate buffered solution containing 0.1% DMSO as an auxiliary solvent.
For example, in the case of Compound 2 mentioned above, the value of the fluorescence intensity at 780 nm obtained with excitation at 750 nm relative to the fluorescence intensity at 780 nm obtained with excitation at 670 nm in an aqueous solution of pH 4 is slightly smaller than 2. The value of the fluorescence intensity at 780 nm obtained with excitation at 750 nm relative to the fluorescence intensity at 780 nm obtained with excitation at 670 nm decreases along with the increase of pH, and it becomes about 0.6 at pH 10. Thus, by measuring the fluorescence intensity ratio at 780 nm obtained with excitation at 670 nm and 750 nm, pH can be calculated. […]
Results of measurement of absorption spectra and excitation spectra of Compounds 1 to 5 in phosphate buffered solution of various pH values as well as ratios of absorbance at 750 nm or 725 nm to absorbance at 670 nm observed in the measurement and ratios of fluorescence intensity at 780 nm obtained by excitation with an excitation light of 750 nm or 760 nm to fluorescence intensity at 780 nm obtained by excitation with an excitation light of 670 nm observed in the measurement are shown in FIGS. 1 to 5. […]

CN(C)CCN(C)C1=C(/C=C/C2=[N+](C)c3ccccc3C2(C)C)CCC/C1=C\C=C1\N(C)c2ccccc2C1(C)C [Compound 2]
fluorescence intensity at 780 nm obtained with excitation at 750 nm relative to fluorescence intensity at 780 nm obtained with excitation at 670 nm (aqueous solution of pH 4): smaller than 2 | fluorescence intensity at 780 nm obtained with excitation at 750 nm relative to fluorescence intensity at 780 nm obtained with excitation at 670 nm (pH 10): about 0.6
